# Measurements from the supplement of paper PMC10849652.
# The chains behind the UniProt entries cited, without tags or fusion partners. Where a name states a change or a piece, a line headed by the entry shows the natural chain unless it says otherwise.
# UniProt P13497: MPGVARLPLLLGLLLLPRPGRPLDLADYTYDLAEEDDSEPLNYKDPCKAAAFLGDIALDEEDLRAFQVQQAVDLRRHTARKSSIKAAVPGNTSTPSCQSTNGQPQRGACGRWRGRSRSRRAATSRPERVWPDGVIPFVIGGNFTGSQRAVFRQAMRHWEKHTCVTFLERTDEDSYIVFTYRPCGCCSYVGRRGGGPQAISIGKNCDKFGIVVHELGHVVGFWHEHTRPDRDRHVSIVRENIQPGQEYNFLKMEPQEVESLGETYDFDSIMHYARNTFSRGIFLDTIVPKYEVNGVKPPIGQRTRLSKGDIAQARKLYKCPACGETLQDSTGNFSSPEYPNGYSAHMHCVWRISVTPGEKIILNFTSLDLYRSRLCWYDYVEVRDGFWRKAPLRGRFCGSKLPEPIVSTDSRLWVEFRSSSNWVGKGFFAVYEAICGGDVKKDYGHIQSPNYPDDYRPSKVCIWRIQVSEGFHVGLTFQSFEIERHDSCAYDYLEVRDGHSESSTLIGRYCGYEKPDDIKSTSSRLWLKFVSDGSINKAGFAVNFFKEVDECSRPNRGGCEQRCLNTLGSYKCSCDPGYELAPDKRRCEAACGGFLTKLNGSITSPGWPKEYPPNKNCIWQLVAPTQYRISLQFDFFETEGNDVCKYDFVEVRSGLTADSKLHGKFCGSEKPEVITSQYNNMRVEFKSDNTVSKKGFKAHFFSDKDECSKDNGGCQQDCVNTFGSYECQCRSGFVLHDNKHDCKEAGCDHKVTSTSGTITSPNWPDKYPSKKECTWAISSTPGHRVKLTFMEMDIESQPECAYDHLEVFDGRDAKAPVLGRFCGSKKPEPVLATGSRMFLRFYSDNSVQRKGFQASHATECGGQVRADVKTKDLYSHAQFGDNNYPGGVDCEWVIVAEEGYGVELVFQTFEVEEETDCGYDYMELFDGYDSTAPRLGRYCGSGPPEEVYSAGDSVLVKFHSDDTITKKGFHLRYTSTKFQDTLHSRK
# UniProt O95415: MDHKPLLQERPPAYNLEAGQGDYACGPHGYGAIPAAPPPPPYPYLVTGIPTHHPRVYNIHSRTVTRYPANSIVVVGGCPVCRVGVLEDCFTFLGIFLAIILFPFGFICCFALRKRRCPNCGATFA
# UniProt Q9NQS1: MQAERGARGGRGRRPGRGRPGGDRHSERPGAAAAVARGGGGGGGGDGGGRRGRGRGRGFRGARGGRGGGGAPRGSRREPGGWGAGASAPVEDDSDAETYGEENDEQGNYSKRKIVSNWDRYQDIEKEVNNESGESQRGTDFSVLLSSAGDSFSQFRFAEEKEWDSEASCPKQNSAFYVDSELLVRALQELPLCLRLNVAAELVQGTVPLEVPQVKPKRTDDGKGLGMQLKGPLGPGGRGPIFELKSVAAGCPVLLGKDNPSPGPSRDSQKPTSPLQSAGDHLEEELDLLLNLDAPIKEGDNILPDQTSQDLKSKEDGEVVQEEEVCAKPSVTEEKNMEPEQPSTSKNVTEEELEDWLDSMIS
# UniProt Q9NWD9: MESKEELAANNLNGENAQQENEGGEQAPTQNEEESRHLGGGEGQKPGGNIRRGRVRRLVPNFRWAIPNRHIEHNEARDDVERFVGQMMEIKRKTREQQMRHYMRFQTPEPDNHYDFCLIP
# UniProt O60513: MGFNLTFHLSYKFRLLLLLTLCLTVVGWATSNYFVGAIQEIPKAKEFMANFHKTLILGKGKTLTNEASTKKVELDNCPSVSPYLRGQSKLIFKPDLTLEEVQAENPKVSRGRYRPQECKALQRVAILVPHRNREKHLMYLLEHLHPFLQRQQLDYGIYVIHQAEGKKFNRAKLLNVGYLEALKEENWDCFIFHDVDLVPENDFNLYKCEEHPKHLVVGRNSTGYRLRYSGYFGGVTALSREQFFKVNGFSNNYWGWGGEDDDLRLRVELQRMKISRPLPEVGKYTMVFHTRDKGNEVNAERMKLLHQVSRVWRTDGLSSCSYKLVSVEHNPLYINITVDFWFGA
# UniProt Q9H7T9: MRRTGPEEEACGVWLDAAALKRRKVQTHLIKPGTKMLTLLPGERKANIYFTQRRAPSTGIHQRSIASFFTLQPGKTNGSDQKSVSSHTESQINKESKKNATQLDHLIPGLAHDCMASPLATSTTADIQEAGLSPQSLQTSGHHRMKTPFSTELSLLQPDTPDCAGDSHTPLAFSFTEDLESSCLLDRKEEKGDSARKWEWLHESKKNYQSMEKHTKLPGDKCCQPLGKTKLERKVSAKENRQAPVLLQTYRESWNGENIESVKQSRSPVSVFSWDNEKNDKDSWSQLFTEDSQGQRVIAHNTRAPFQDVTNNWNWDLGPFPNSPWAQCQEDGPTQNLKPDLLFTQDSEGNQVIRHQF
# UniProt Q9NYM9: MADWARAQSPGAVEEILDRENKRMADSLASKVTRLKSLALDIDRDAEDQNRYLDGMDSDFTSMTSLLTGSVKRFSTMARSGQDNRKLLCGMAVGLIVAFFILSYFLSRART
# UniProt Q4VC05, whole entry, looked up: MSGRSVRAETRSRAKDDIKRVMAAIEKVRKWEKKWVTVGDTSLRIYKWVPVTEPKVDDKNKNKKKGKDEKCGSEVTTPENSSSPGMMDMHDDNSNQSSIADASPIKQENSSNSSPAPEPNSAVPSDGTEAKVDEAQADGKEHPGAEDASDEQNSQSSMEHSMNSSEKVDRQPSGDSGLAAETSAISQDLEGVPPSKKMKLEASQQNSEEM
# UniProt Q96GD4, whole entry, looked up: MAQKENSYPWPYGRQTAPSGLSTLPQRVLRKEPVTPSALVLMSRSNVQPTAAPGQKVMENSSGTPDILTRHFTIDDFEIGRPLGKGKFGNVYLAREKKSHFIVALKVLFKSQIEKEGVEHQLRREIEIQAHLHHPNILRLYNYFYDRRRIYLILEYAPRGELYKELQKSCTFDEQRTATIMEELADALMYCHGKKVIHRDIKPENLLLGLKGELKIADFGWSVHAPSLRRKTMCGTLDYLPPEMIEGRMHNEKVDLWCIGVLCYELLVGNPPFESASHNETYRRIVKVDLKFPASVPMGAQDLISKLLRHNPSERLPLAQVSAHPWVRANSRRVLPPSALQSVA
# UniProt O43521, whole entry, looked up: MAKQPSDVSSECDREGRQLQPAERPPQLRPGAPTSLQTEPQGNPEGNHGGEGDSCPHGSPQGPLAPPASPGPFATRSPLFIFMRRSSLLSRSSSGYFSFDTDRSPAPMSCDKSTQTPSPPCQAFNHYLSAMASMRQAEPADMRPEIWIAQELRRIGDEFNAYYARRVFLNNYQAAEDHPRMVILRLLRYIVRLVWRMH
# UniProt Q9HCU9: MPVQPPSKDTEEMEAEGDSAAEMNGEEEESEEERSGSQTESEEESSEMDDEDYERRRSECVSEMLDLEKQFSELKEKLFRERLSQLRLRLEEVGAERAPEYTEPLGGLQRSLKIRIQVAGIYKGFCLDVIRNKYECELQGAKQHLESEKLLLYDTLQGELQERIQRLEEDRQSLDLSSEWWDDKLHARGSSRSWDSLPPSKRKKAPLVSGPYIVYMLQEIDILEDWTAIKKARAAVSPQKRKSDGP
# UniProt Q96IK1: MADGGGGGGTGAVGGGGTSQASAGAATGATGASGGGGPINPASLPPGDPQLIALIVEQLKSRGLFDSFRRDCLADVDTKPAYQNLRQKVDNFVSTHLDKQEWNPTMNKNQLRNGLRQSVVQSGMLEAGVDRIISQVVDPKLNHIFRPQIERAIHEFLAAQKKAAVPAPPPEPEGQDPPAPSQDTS
# UniProt Q96FH0: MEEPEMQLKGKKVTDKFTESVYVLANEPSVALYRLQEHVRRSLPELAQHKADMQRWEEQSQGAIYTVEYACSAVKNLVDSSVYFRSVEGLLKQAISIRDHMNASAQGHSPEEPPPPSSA
# UniProt O14977: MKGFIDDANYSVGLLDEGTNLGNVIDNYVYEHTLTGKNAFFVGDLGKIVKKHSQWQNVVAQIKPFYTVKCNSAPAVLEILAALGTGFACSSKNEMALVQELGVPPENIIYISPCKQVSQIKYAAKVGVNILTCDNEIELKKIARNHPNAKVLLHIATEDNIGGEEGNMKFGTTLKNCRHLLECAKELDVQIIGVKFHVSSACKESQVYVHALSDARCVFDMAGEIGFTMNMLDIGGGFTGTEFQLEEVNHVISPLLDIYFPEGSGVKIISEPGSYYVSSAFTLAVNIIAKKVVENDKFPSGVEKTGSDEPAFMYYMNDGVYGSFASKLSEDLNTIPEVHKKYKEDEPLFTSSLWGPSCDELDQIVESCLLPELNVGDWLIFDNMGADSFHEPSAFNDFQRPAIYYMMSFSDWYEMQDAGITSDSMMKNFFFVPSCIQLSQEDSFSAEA
# UniProt Q9NZS9: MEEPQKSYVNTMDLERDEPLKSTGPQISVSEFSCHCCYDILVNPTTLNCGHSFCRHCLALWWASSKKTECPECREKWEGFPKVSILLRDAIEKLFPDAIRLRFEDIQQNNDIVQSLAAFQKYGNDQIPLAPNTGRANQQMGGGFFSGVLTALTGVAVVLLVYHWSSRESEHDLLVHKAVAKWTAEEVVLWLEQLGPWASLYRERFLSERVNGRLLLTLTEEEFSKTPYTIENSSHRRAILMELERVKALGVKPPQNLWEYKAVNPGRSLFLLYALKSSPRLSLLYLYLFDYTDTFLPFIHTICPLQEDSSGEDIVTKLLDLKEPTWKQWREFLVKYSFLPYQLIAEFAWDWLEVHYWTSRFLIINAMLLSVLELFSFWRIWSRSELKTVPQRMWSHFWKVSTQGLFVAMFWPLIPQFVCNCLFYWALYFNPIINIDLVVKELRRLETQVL
# UniProt Q5T6C5: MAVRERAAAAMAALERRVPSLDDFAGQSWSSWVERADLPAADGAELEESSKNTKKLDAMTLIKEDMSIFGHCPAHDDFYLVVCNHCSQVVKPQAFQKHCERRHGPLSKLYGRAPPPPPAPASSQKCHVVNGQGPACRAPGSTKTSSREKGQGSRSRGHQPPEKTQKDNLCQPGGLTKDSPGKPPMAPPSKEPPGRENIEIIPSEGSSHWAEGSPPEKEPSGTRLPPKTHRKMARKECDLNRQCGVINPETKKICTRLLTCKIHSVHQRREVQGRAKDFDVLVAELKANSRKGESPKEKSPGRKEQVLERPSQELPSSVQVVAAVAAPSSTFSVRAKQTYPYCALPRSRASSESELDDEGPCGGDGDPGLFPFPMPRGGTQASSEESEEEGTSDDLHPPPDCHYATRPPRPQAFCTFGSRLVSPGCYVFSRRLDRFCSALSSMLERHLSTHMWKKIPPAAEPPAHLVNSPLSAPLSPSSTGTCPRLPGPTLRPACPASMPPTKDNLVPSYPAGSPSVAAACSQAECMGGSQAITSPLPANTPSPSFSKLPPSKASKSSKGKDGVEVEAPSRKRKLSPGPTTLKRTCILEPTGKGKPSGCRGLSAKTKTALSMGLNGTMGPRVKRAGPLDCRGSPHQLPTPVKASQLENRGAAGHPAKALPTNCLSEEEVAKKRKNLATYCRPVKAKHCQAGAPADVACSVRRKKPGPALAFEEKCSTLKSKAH
# UniProt Q8IXM2, whole entry, looked up: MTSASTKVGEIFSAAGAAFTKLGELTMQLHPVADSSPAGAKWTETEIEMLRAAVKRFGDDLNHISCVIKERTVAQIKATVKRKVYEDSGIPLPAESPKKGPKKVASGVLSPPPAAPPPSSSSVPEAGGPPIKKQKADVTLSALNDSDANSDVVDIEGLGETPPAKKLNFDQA
# UniProt Q8TDL5: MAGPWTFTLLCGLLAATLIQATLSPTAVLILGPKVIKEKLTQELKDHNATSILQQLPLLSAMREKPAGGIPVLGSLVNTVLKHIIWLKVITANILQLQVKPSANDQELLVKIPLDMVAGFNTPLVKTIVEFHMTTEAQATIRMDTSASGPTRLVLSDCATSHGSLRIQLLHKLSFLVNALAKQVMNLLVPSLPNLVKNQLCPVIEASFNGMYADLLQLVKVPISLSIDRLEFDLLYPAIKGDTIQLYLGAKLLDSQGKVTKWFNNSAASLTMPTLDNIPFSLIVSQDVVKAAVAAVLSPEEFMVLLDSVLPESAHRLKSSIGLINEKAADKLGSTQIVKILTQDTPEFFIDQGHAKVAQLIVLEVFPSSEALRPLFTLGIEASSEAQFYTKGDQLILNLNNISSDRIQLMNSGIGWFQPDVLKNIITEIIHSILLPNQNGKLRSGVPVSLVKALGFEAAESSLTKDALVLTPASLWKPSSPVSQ
# This is one part of the list. Residues, ends and D or L forms follow the SMILES beside them. *: point of attachment. Cbz = O=C(OCc1ccccc1)*
# Compound: C=CC(=O)N1CCC[C@@H](n2nc(-c3ccc(Oc4ccccc4)cc3)c3c(N)ncnc32)C1 [ibrutinib]
# Test: log2 fold change, soluble protein after heating vs DMSO (PISA); higher = thermal stabilisation; K562 cells, 10 uM, 30 min; active = over 0.2 and 3.5 SD of the protein, either way, in both replicates (recomputed)
# Method in brief: (§1)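 Soluble protein was quantified by TMTpro 16plex LC-MS/MS after channel sums were equalised. It was obtained as the supernatant after 21,000xg for 90 min from pooled aliquots of K562 cells (2×10^6 cells/mL, 10 μM compound, 30 min) heated for 3 min across 48°C-58°C and extracted in PBS with 0.5% NP-40 at 4°C. Thermal stability values are relative to control samples and come from duplicates. They are given as log2 fold changes.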
row,Target,log2 fold change
1,BMP1 (UniProt P13497),inactive: 0.143
2,BORA (UniProt Q6PGQ7),inactive: -0.242
3,BRI3 (UniProt O95415),inactive: -0.22
4,AVEN (UniProt Q9NQS1),inactive: 0.065
5,"BCS1L, A0A2R8Y7T3",inactive: 0.035
6,BEX4 (UniProt Q9NWD9),inactive: 0.094
7,B4GALT4 (UniProt O60513),inactive: 0.094
8,BNIP2 (UniProt H7C096),inactive: 0.197
9,BCL7C isoform 2 (UniProt Q8WUZ0),inactive: 0.008

# Compound: CC(=O)c1cnc2ccc(-c3cc(Cl)c(O)c(Cl)c3)nc2c1N[C@H]1CC[C@H](CN(C)C)CC1
# Test: as above
# Method in brief: as §1
row,Target,log2 fold change
1,AUNIP isoform 2 (UniProt Q9H7T9),inactive: -0.219
2,BET1L (UniProt Q9NYM9),inactive: -0.102
3,BCL7A isoform 2 (UniProt Q4VC05),inactive: -0.011
4,ATRX (UniProt P46100),inactive: -0.099
5,AURKAIP1 (UniProt Q9NWT8),inactive: 0.016
6,AURKB isoform 5 (UniProt Q96GD4),inactive: 1.18
7,ATXN2 (UniProt F8W0B5),inactive: -0.126
8,BCL2L11 (UniProt O43521),inactive: -0.009
9,BRMS1 (UniProt Q9HCU9),inactive: 0.055

# Compound: CC(C)(C)Cn1c(N)nc2ccc(-c3[nH]c(C(C)(C)C)nc3-c3ccc(F)cc3)nc21 [ralimetinib]
# Test: as above
# Method in brief: as §1
row,Target,log2 fold change
1,BOD1 (UniProt Q96IK1),inactive: -0.025
2,BORCS8 (UniProt Q96FH0),inactive: 0.045
3,BET1L (UniProt Q9NYM9),inactive: -0.05
4,AURKAIP1 (UniProt Q9NWT8),inactive: 0.215
5,B4GALT4 (UniProt O60513),inactive: 0.248
6,ATXN2 (UniProt F8W0B5),inactive: -0.155
7,BCL2L11 (UniProt O43521),inactive: -0.063
8,AZIN1 (UniProt O14977),inactive: 0.033

# Compound: CC(C)(O)CC(=O)NCCn1ccc2ncnc(Nc3ccc(Oc4cccc(C(F)(F)F)c4)c(Cl)c3)c21
# Test: as above
# Method in brief: as §1
row,Target,log2 fold change
1,BORA (UniProt Q6PGQ7),inactive: -0.037
2,BET1L (UniProt Q9NYM9),inactive: 0.05
3,BCL7A isoform 2 (UniProt Q4VC05),inactive: 0.167
4,AVEN (UniProt Q9NQS1),inactive: 0
5,AURKAIP1 (UniProt Q9NWT8),inactive: 0.126
6,BCL2L11 (UniProt O43521),inactive: 0.172
7,BFAR (UniProt Q9NZS9),inactive: -0.07
8,ATXN7L2 (UniProt Q5T6C5),inactive: 0.041
9,BCL7C isoform 2 (UniProt Q8WUZ0),inactive: 0.076
10,BRMS1 (UniProt Q9HCU9),inactive: -0.002

# Compound: CC(C)C1=C2N=C(C=C(N2N=C1)NCC3=CC=CC=C3)NCCCCCCN
# Test: as above
# Method in brief: as §1
row,Target,log2 fold change
1,BMP1 (UniProt P13497),inactive: 0.233
2,BAHD1 (UniProt Q8TBE0),inactive: -0.013
3,BOD1 (UniProt Q96IK1),inactive: 0.032
4,AUNIP isoform 2 (UniProt Q9H7T9),inactive: -0.134
5,BET1L (UniProt Q9NYM9),inactive: -0.008
6,BCL7A isoform 2 (UniProt Q4VC05),inactive: 0.045
7,AVEN (UniProt Q9NQS1),inactive: -0.008
8,AURKAIP1 (UniProt Q9NWT8),inactive: -0.029
9,BEX4 (UniProt Q9NWD9),inactive: 0.073
10,ATXN2 (UniProt F8W0B5),inactive: 0.002
11,BCL2L11 (UniProt O43521),inactive: -0.045
12,BAP18 isoform 3 (UniProt Q8IXM2),inactive: 0.074
13,BNIP2 (UniProt H7C096),inactive: -0.266
14,BCL7C isoform 2 (UniProt Q8WUZ0),inactive: 0.052

# Compound: CC(C)C[C@@H](C=O)NC(=O)[C@H](CC(C)C)NC(=O)[C@H](CC(C)C)NC(=O)OCc1ccccc1
# Test: as above
# Method in brief: as §1
row,Target,log2 fold change
1,BOD1 (UniProt Q96IK1),inactive: 0
2,BORCS8 (UniProt Q96FH0),inactive: -0.119
3,BET1L (UniProt Q9NYM9),inactive: -0.096
4,AURKAIP1 (UniProt Q9NWT8),inactive: 0.178
5,B4GALT4 (UniProt O60513),inactive: -0.174
6,ATXN2 (UniProt F8W0B5),inactive: 0.06
7,BCL2L11 (UniProt O43521),inactive: -0.072
8,AZIN1 (UniProt O14977),inactive: 0.331

# Compound: CC1=C(C(CC(=O)N1)C2=CC=C(C=C2)C(F)(F)F)C(=O)NC3=C(C=C4C(=C3)C=NN4)F
# Test: as above
# Method in brief: as §1
row,Target,log2 fold change
1,BPIFB1 (UniProt Q8TDL5),inactive: -0.879
2,BAHD1 (UniProt Q8TBE0),inactive: 0.067
3,BET1L (UniProt Q9NYM9),inactive: 0.057
4,B4GALT4 (UniProt O60513),inactive: 0.042
5,AURKB isoform 5 (UniProt Q96GD4),inactive: 0.015
6,ATXN2 (UniProt F8W0B5),inactive: -0.048
7,BCL2L11 (UniProt O43521),inactive: -0.049
8,BCL7C isoform 2 (UniProt Q8WUZ0),inactive: 0.05

# Compound: CC1=C(C2=C(C=C1)C(=O)C3=CC=CC=C3N2CCCN)C
# Test: as above
# Method in brief: as §1
row,Target,log2 fold change
1,AUNIP isoform 2 (UniProt Q9H7T9),inactive: -0.141
2,BORCS8 (UniProt Q96FH0),inactive: 0.311
3,BET1L (UniProt Q9NYM9),inactive: 0.11
4,BCL7A isoform 2 (UniProt Q4VC05),inactive: -0.014
5,AURKAIP1 (UniProt Q9NWT8),inactive: -0.006
6,BAIAP2 isoform 4 (UniProt Q9UQB8),inactive: 0.053
7,AURKB isoform 5 (UniProt Q96GD4),inactive: -0.13
8,BCL2L11 (UniProt O43521),inactive: -0.066
9,BAP18 isoform 3 (UniProt Q8IXM2),inactive: -0.183
10,BRMS1 (UniProt Q9HCU9),inactive: -0.014
